PubChem BioAssay AID504467 (National Center for Advancing Translational Sciences (NCATS), 2011)
About 7,700 (2.3%) of roughly 330,000 compounds were called active. Inconclusive means that the source gave no clear call. Such entries were picked first, then a sample of the others. Calls follow the shape of the dose curve; as a rule, active = well fitted inhibition curve with a large enough effect; inconclusive = small, poorly fitted or top-dose-only effect, or effect the other way; inactive = flat fitted curve, though single readings scatter. Potencies beside an inconclusive call are fits to weak or partial responses and may not hold up.

Assay: qHTS screen for small molecules that inhibit ELG1-dependent DNA repair in human embryonic kidney (HEK293T) cells expressing luciferase-tagged ELG1; also: nearly all actives have a fitted effect of over 55% in size
Details: HEK293T ELG1-luciferase reporter, luminescence, 16 h, DNA damage induced by 5-fluorouridine; series mostly up to 46.1 µM
Summary of the method: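 Overnight (16 hr) co-exposure of 2,000 cells/well to 5-fluorouridine and compound at 37 °C preceded detection. Luciferase was quantified via ONE-Glo luminescence; loss of signal denotes inhibition.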
Potency is read from the fitted curve at half-maximal effect.

Row | Compound | Potency
1 | Fc1ccc(/C=C/c2nnc(-c3cccs3)o2)cc1 | inconclusive: 9.2 µM [activator, partial curve]
2 | Cc1ccc(C(NC(=O)c2cccc(S(=O)(=O)N3CCN(C)CC3)c2)c2ccccc2)cc1 (configuration not stated) | inactive
3 | O=c1[nH]cnc2c1cnn2Cc1ccccc1Cl | inactive
4 | COC(=O)[C@]1(C)CCC[C@@]2(C)C3CC[C@]4(OC(C)=O)C[C@@]3(CCC21)CC4=O (some centres not stated) | inconclusive: 18.3 µM [inhibitor, partial curve, poor fit]
5 | CCCCn1c(-c2ccc(C(C)(C)C)cc2)nc2cc3[nH]c(=O)c(C(C)C)nc3cc21 | inactive
6 | CCC1CCCCN1CCCNC(=O)CCCOc1cc(=O)n(C)c2ccccc12 (configuration not stated) | inconclusive: 20.6 µM [activator, partial curve]
7 | Cc1ccc(S(=O)(=O)C(c2ccccc2)c2c(C)noc2C)cc1 (configuration not stated) | inactive
8 | COc1ccccc1-n1cnc2c(c1=O)c1nc3ccccc3nc1n2-c1ccc(C)cc1 | inconclusive: 29.1 µM [inhibitor, single point]
9 | COc1cc(-c2nc(-c3cccc(C(F)(F)F)c3)no2)cc(OC)c1OC | active: 23.1 µM
10 | COc1ccccc1CNC(=O)[C@H](NC(=O)C1CCN(C(=O)[C@@H](N)CCSC)CC1)C(C)C | inconclusive: 0.206 µM [activator, full curve, poor fit]
11 | COc1ccc(O)c(-c2cc(-c3ccccc3[N+](=O)[O-])[nH]n2)c1 | inconclusive: 29.1 µM [inhibitor, single point]
12 | CN(C)c1ccc(N=Nc2cccc3ccoc23)cc1 | inconclusive: 7.3 µM [activator, partial curve]
13 | C=CCn1c(SCc2c(F)c(F)c(F)c(F)c2F)nc(O)cc1=O | inactive
14 | C/C(N)=C(/C#N)C(=O)CSc1nnc(COc2cc(C)ccc2C)o1 | inactive
15 | O=C(Nc1ccc2oc(-c3cccnc3)nc2c1)c1cccnc1 | inactive
16 | O=C(O)CSCCOc1ccc(OCCSCC(=O)O)cc1 | inactive
17 | COc1ccccc1NC(=O)C(C)OC(=O)CCC1CCCCC1 (configuration not stated) | inactive
18 | O=C(c1ccco1)N1CCN(c2ccc(Cl)cc2)CC1 | inconclusive: 18.4 µM [activator, partial curve]
19 | COc1ccc(N2C(=O)CC(NNc3nc4ccccc4s3)C2=O)cc1 (configuration not stated) | inactive
20 | Cc1cccc(C2=NN(c3ccccc3)[C@H](CO)[C@H]2c2ccccc2)c1 | inactive
21 | COc1cc(C(=O)c2c(C)c(CCC#N)n3ccccc23)cc(OC)c1OC | inconclusive: 23.1 µM [inhibitor, single point]
22 | Cc1cccc(/C=N/NC(=O)c2c(-c3ccccc3)noc2C)c1O | inactive
23 | O=C(COC(=O)CSc1ccc(Cl)cc1)NCCc1ccccc1 | inactive
24 | Cc1ccc(/C=C2\SC(=S)N(CCCC(=O)NNC(=O)c3ccccc3O)C2=O)cc1 | inconclusive: 9.2 µM [inhibitor, partial curve, poor fit]

Row | Compound | Potency
25 | c1ccc(CCC2Cc3ccccc3N2)cc1 (configuration not stated) | inconclusive: 23.1 µM [activator, single point]
26 | COCCC(=O)N1CCC(Oc2ccc(C(=O)NCCSC)cc2)CC1 | inactive
27 | Cc1cc(C)nc(N2CCC(C(=O)NCCc3ccccc3)CC2)n1 | inactive
28 | Cc1cccc(C)c1NC(=S)NCCc1ccccn1 | inactive
29 | Cc1cc(C)n(CC(=O)NNC(=O)C2CC(=O)N(Cc3ccccc3Cl)C2)n1 (configuration not stated) | inactive
30 | CC(C)(C)c1ccc(C(=O)OCC(=O)Nc2sc3c(c2C#N)CCC3)cc1 | inconclusive: 25.9 µM [activator, single point]
31 | COc1cc(OC)cc(C(=O)N[C@H](C(=O)OCc2cc(=O)oc3cc(C)ccc23)C(C)C)c1 | inconclusive: 23.1 µM [inhibitor, partial curve, poor fit]
32 | CC(=O)c1ccc(NC(=O)c2ccccc2Sc2ncnc3sc(C)c(C)c23)cc1 | inconclusive: 32.6 µM [inhibitor, single point]
33 | COc1ccc(C(=O)Nc2nc(-c3ccc(S(=O)(=O)N4CCOCC4)cc3)cs2)cc1 | active: 11.6 µM
34 | CCOC(=O)C1=C(CN2CCN(C(=O)c3ccco3)CC2)NC(=O)NC1c1ccc(F)cc1 (configuration not stated) | inactive
35 | CC(C)N(Cc1ccccc1)C(=O)/C=C/c1ccccc1[N+](=O)[O-] | inconclusive: 29.1 µM [inhibitor, single point]
36 | O=C(CSc1nc2ccccc2c2nc3ccccc3n12)NCc1ccco1 | inactive
37 | O=C(CCNC(=O)c1ccccc1Cl)NCc1ccncc1 | inactive
38 | CC(=O)Nc1cccc(NC(=O)c2oc3ccccc3c2C)c1 | inconclusive: 6.51 µM [activator, single point]
39 | CC1CCc2cc(F)ccc2N1C(=O)CSc1nnc2c3cc(F)ccc3n(C)c2n1 (configuration not stated) | inconclusive: 20.6 µM [inhibitor, single point]
40 | COc1ccc2cc(CN(Cc3cccnc3)Cc3nnnn3Cc3ccccc3)c(=O)[nH]c2c1 | inconclusive: 32.6 µM [inhibitor, single point]
41 | O=C(NNC(=O)c1ccc(S(=O)(=O)N2CCCC2)cc1)c1ccc(Br)cc1 | inactive
42 | C=CC[C@@H](CC(=O)N[C@@H](CO)Cc1ccccc1)C(=O)N[C@H](COC(=O)[C@H](CC=C)CC(=O)OC(C)(C)C)Cc1ccccc1 | inactive
43 | O=[N+]([O-])c1ccc(NC(=S)NCC(c2cccnc2)N2CCOCC2)cc1 (configuration not stated) | inactive
44 | Cc1cc(C)c(CN2CCN(C(=O)Cn3cnc4c(OCc5ccccc5)ncnc43)CC2)c(C)c1 | inconclusive: 2.31 µM [inhibitor, full curve]
45 | O=C(CCOc1ccccc1)Nc1ccccc1F | inconclusive: 20.6 µM [activator, partial curve]
46 | CC(Sc1ncnc2sc(-c3ccccc3)cc12)C(=O)N1CCNC1=O (configuration not stated) | inconclusive: 20.6 µM [inhibitor, single point]
47 | Cc1nn2cc(-c3ccccc3)nc2s1 | inconclusive: 2.91 µM [activator, partial curve]
48 | COc1ccc2cc(C#N)c(NC(C)C)nc2c1 | inactive

Row | Compound | Potency
49 | CC1(C)Cc2c(sc(NC(=O)c3ccco3)c2C(=O)O)CO1 | inconclusive: 18.4 µM [activator, partial curve]
50 | Cc1cc(C)n2cc(CSc3nnnn3-c3ccc(Cl)cc3)nc2n1 | inactive
51 | Cc1cccc(C(=O)OCC(=O)c2c(N)n(CC(C)C)c(=O)n(C)c2=O)c1[N+](=O)[O-] | active: 4.47 µM
52 | COc1cc(-c2noc(CCCC(=O)NC3CCCCC3)n2)cc(OC)c1OC | active: 5.17 µM
53 | Cc1cccc(OCc2nnc(SCc3nc4cc(C(F)(F)F)ccc4c(=O)[nH]3)o2)c1 | inconclusive: 32.6 µM [inhibitor, partial curve, poor fit]
54 | CCOC(=O)c1[nH]c2ccc(OC)cc2c1NC(=O)OC | inconclusive: 20 µM [inhibitor, partial curve, poor fit]
55 | Cc1ccc(NC(=O)CN(C)CC(=O)Nc2ccccc2C(=O)Nc2ccccc2)cc1 | inconclusive: 8.2 µM [inhibitor, partial curve]
56 | COc1cc(-c2nnc(CSc3nnc(Nc4ccc(Oc5ccccc5)cc4)s3)o2)cc(OC)c1OC | active: 7.31 µM
57 | Cc1cccc(C(=O)NNC(=O)CCCCC(=O)NNC(=O)c2cccc(C)c2)c1 | inconclusive: 6.51 µM [inhibitor, single point]
58 | CSc1sc(-c2ccnc(SCCS(C)(=O)=O)n2)c(-c2ccccc2)c1C#N | active: 4.61 µM
59 | Cc1nnc(SCC(=O)Nc2ccccc2)n(N)c1=O | inconclusive: 23.1 µM [activator, partial curve, poor fit]
60 | CC(C)(C)C1CCC(OC(=O)C[N+]2(C)CCCCC2)CC1 (configuration not stated) | inconclusive: 29.1 µM [inhibitor, single point]
61 | COc1ccc(Cl)cc1NC(=O)CCN1CCOCC1 | inconclusive: 32.6 µM [activator, partial curve, poor fit]
62 | CCn1c(SCC(=O)c2cc(C)n(CC3CCCO3)c2C)nc2ccccc21 (configuration not stated) | inconclusive: 5.8 µM [activator, full curve]
63 | O=C(Nc1nc2c(s1)CCCC2)c1cccs1 | inconclusive: 1.03 µM [activator, partial curve]
64 | CCCC(C(=O)NC1CCCC1)N(C(=O)c1snc(C(N)=O)c1N)c1ccc(OCC)cc1 (configuration not stated) | inconclusive: 2.59 µM [inhibitor, partial curve, poor fit]
65 | C#CCOCCOCCOCCNc1nc(N2CCN(C(=O)CCCCCCCCCCNC(=O)Cn3cc(CCCCCN)nn3)CC2)nc(N2CCN(C(=O)CCCCCCCCCCNC(=O)[C@H](CO)n3cc(CCCCCN)nn3)CC2)n1 | inactive
66 | Cc1ccc(S(=O)(=O)N(C)c2ccc(OC(=O)c3cc(=O)[nH]c4ccccc34)cc2)cc1 | inactive
67 | COc1cc(CNC2CCCC2)cc(OC)c1 | inconclusive: 23.1 µM [activator, partial curve, poor fit]
68 | Cc1ccc(-n2nc3c(N4CCC(C(=O)NCCc5ccccc5C)CC4)nnc(C)c3c2C)cc1 | inactive
69 | S=C(NCc1ccco1)Nc1cccc(Cl)c1Cl | active: 14.6 µM
70 | COc1ccc(OCc2cc(C(=O)NCCN3CCCC(O)C3)no2)c(Cl)c1 (configuration not stated) | inconclusive: 32.6 µM [activator, partial curve, poor fit]
71 | CCOc1cccc(/C=N/NC(=O)c2cc(C3CC3)[nH]n2)c1O | active: 2.59 µM
72 | COc1ccc(NC(=O)CCNC(=O)Cn2cnc3sc4c(c3c2=O)CCCC4)cc1OC | inconclusive: 5.17 µM [inhibitor, partial curve, poor fit]

Reprinted, entries 58–60
Row | Compound | Potency
58 | CSc1sc(-c2ccnc(SCCS(C)(=O)=O)n2)c(-c2ccccc2)c1C#N | active: 4.61 µM
59 | Cc1nnc(SCC(=O)Nc2ccccc2)n(N)c1=O | inconclusive: 23.1 µM [activator, partial curve, poor fit]
60 | CC(C)(C)C1CCC(OC(=O)C[N+]2(C)CCCCC2)CC1 (configuration not stated) | inconclusive: 29.1 µM [inhibitor, single point]
